Data from PMC8660824.
Read-outs that look alike come from different tables or passages of the source. No constants are given. Whether binding was seen depends on the method and setting. Binding seen in cells or lysates may run through a third protein. Some binding calls cover weakened binding; strength is not graded here.

Amino acid sequences for entries named in this document (tags omitted).
UniProt Q14980: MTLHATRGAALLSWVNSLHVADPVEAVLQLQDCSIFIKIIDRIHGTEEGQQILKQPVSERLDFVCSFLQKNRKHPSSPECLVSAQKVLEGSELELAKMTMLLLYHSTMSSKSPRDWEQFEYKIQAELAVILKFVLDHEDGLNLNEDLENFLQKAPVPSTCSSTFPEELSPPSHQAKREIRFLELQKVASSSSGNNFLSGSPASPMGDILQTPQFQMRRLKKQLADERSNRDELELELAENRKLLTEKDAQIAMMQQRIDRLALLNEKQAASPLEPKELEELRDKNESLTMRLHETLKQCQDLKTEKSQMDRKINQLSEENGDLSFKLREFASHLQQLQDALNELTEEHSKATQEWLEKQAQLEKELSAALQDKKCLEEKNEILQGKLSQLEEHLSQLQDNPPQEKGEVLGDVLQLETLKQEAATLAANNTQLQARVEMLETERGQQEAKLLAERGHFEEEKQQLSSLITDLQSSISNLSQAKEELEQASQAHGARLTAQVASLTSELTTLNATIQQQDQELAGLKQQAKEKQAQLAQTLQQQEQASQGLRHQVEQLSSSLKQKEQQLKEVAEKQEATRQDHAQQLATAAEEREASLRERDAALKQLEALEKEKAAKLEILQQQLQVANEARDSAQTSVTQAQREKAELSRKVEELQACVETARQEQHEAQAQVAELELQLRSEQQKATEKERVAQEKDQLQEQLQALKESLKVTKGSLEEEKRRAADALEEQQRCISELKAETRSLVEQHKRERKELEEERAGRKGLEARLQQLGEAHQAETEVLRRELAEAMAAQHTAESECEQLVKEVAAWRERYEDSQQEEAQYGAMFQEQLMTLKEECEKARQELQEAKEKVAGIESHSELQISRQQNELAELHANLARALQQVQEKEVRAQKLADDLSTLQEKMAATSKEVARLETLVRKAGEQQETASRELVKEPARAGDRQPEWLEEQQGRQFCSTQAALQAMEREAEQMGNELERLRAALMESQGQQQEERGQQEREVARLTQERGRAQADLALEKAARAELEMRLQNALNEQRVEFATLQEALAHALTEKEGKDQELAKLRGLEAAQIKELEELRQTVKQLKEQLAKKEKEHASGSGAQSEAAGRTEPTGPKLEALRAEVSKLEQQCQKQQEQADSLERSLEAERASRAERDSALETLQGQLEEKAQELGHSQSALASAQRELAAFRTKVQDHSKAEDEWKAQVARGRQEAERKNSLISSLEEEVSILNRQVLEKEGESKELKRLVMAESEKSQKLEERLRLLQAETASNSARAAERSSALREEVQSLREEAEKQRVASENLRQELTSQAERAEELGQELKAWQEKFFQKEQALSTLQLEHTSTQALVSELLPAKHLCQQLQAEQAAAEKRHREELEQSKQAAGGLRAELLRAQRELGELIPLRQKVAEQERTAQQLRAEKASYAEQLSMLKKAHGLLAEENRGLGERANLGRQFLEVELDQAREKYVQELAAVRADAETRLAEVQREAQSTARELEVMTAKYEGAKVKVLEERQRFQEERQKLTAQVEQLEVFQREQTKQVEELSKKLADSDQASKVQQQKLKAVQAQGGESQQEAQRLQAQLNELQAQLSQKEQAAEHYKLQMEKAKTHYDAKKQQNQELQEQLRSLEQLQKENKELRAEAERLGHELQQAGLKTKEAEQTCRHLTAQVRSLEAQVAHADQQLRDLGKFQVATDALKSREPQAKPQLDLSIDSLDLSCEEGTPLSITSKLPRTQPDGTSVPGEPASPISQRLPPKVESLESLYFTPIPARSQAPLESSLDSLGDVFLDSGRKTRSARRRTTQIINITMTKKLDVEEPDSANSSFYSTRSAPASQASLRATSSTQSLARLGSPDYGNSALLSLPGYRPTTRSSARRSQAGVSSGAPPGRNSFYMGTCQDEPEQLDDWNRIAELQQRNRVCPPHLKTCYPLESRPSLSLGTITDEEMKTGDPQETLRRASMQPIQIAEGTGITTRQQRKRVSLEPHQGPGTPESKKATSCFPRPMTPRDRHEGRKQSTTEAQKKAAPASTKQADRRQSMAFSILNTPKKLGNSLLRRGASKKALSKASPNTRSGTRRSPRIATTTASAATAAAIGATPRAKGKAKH
UniProt O00139: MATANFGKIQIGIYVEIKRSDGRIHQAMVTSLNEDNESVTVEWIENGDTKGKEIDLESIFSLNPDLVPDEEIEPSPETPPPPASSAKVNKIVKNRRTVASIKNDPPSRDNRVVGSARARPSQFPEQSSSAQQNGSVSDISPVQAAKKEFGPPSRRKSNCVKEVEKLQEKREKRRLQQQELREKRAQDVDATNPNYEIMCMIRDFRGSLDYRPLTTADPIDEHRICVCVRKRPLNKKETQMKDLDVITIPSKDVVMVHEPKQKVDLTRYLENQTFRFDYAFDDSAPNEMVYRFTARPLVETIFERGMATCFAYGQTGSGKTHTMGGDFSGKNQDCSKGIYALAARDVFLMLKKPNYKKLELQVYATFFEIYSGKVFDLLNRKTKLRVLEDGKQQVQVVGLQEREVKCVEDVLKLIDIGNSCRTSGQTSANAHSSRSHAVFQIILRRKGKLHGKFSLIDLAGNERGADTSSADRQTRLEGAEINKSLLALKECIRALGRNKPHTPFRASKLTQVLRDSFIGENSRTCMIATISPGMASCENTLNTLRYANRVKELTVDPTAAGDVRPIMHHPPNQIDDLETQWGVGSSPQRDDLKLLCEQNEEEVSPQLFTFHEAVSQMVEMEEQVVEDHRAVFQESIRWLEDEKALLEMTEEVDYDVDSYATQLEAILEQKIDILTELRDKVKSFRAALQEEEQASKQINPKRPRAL

Columns and labels:
Experiment in all cases: co-IP; mitotic (thymidine, then nocodazole) HEK293T cells transfected with GFP-tagged constructs; lysis buffer 20 mM Tris-HCl pH 8.0, 150 mM NaCl, 0.5% NP-40; GFP-Trap beads 1.5 h at 4 °C; western blot
[1] = molecular target: GFP-NuMA (Nuclear Mitotic Apparatus protein, full-length) (human) (UniProt Q14980)
GFP-Kif2A = GFP-Kif2A (UniProt O00139)
[2] = molecular target: GFP-NuMA (Nuclear Mitotic Apparatus protein, full-length) (human) (UniProt Q14980); remark: listed apart in the source

Molecule: Kif2A (from UniProt O00139 1-706)
- binding [1]: binds

Molecule: NuMA, endogenous (from UniProt Q14980 1-2115)
- binding (GFP-Kif2A): binds

B1: KifC1 (protein, UniProt Q9BW19 1-673)
chain: MDPQRSPLLEVKGNIELKRPLIKAPSQLPLSGSRLKRRPDQMEDGLEPEKKRTRGLGATTKITTSHPRVPSLTTVPQTQGQTTAQKVSKKTGPRCSTAIATGLKNQKPVPAVPVQKSGTSGVPPMAGGKKPSKRPAWDLKGQLCDLNAELKRCRERTQTLDQENQQLQDQLRDAQQQVKALGTERTTLEGHLAKVQAQAEQGQQELKNLRACVLELEERLSTQEGLVQELQKKQVELQEERRGLMSQLEEKERRLQTSEAALSSSQAEVASLRQETVAQAALLTEREERLHGLEMERRRLHNQLQELKGNIRVFCRVRPVLPGEPTPPPGLLLFPSGPGGPSDPPTRLSLSRSDERRGTLSGAPAPPTRHDFSFDRVFPPGSGQDEVFEEIAMLVQSALDGYPVCIFAYGQTGSGKTFTMEGGPGGDPQLEGLIPRALRHLFSVAQELSGQGWTYSFVASYVEIYNETVRDLLATGTRKGQGGECEIRRAGPGSEELTVTNARYVPVSCEKEVDALLHLARQNRAVARTAQNERSSRSHSVFQLQISGEHSSRGLQCGAPLSLVDLAGSERLDPGLALGPGERERLRETQAINSSLSTLGLVIMALSNKESHVPYRNSKLTYLLQNSLGGSAKMLMFVNISPLEENVSESLNSLRFASKVNQCVIGTAQANRK
- binding [2]: binds
